According to PMC4705995, “The Protein Interaction of RNA Helicase B (RhlB) and Polynucleotide Phosphorylase (PNPase) Contributes to the Homeostatic Control of Cysteine in Escherichia coli*” (The Journal of Biological Chemistry, 2015):
These are yes or no findings as the source states them, for the method shown. Some binding calls cover weakened binding; strength is not graded here. Tags and fused reporters may be left off the sequences shown.

T1: PNPT18 (PNPase tagged with T18) (Escherichia coli) (UniProt P05055)
T1 sequence: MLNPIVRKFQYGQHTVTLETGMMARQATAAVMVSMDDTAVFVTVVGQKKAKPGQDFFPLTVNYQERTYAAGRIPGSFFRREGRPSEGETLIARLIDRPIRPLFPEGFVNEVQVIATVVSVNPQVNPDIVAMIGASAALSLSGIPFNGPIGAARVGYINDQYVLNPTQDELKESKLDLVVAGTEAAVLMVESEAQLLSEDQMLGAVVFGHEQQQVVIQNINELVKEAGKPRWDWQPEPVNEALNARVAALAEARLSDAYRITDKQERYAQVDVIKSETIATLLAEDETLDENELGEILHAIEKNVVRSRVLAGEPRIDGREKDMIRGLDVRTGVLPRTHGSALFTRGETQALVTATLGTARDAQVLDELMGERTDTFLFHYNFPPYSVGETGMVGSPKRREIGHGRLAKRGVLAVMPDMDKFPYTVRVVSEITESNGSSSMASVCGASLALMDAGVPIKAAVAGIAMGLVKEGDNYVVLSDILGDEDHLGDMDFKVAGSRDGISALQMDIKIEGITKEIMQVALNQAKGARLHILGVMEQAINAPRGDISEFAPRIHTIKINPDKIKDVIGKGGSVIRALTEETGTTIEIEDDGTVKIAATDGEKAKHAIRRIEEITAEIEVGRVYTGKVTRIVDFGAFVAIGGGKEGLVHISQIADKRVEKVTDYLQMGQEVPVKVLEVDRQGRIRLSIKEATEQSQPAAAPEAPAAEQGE


Assays:
[1] = target: T1, PNPT18 (PNPase tagged with T18) (Escherichia coli); experiment: two-hybrid; bacterial two-hybrid (CyaA T25/T18) in E. coli DHP1; beta-galactosidase activity, relative to T25RhlB^wt set as 100%
[2] = target: T1, PNPT18 (PNPase tagged with T18) (Escherichia coli); experiment: two-hybrid; bacterial two-hybrid (CyaA T25/T18) in E. coli DHP1; colony colour on a MacConkey/maltose plate

Binder	binding [1]	binding [2]
FlagRhlB^wt (Flag-tagged wild-type RhlB) (enzyme, Escherichia coli, UniProt P0A8J8 1-421, looked up, RNA helicase B (RhlB) of Escherichia coli; also called pFlagRhlB^wt) MSKTHLTEQKFSDFALHPKVVEALEKKGFHNCTPIQALALPLTLAGRDVAGQAQTGTGKTMAFLTSTFHYLLSHPAIADRKVNQPRALIMAPTRELAVQIHADAEPLAEATGLKLGLAYGGDGYDKQLKVLESGVDILIGTTGRLIDYAKQNHINLGAIQVVVLDEADRMYDLGFIKDIRWLFRRMPPANQRLNMLFSATLSYRVRELAFEQMNNAEYIEVEPEQKTGHRIKEELFYPSNEEKMRLLQTLIEEEWPDRAIIFANTKHRCEEIWGHLAADGHRVGLLTGDVAQKKRLRILDEFTRGDLDILVATDVAARGLHIPAVTHVFNYDLPDDCEDYVHRIGRTGRAGASGHSISLACEEYALNLPAIETYIGHSIPVSKYNPDALMTDLPKPLRLTRPRTGNGPRRTGAPRNRRRSG	binds	binds
FlagRhlB^P238L (Flag-tagged RhlB^P238L) (enzyme, Escherichia coli, UniProt P0A8J8 1-421, looked up, RNA helicase B (RhlB) of Escherichia coli with P238L, introduced into pFlagRhlB by site-directed mutagenesis; also called pFlagRhlB^P238L) MSKTHLTEQKFSDFALHPKVVEALEKKGFHNCTPIQALALPLTLAGRDVAGQAQTGTGKTMAFLTSTFHYLLSHPAIADRKVNQPRALIMAPTRELAVQIHADAEPLAEATGLKLGLAYGGDGYDKQLKVLESGVDILIGTTGRLIDYAKQNHINLGAIQVVVLDEADRMYDLGFIKDIRWLFRRMPPANQRLNMLFSATLSYRVRELAFEQMNNAEYIEVEPEQKTGHRIKEELFYLSNEEKMRLLQTLIEEEWPDRAIIFANTKHRCEEIWGHLAADGHRVGLLTGDVAQKKRLRILDEFTRGDLDILVATDVAARGLHIPAVTHVFNYDLPDDCEDYVHRIGRTGRAGASGHSISLACEEYALNLPAIETYIGHSIPVSKYNPDALMTDLPKPLRLTRPRTGNGPRRTGAPRNRRRSG	binds	binds
